In paper PMC5472790 one finds binding data, which are given here for two substances.

By UniProt entry, the sequences of proteins in these tests, tags left out. Residues count along the entry.
UniProt Q01097, residues 27-1482: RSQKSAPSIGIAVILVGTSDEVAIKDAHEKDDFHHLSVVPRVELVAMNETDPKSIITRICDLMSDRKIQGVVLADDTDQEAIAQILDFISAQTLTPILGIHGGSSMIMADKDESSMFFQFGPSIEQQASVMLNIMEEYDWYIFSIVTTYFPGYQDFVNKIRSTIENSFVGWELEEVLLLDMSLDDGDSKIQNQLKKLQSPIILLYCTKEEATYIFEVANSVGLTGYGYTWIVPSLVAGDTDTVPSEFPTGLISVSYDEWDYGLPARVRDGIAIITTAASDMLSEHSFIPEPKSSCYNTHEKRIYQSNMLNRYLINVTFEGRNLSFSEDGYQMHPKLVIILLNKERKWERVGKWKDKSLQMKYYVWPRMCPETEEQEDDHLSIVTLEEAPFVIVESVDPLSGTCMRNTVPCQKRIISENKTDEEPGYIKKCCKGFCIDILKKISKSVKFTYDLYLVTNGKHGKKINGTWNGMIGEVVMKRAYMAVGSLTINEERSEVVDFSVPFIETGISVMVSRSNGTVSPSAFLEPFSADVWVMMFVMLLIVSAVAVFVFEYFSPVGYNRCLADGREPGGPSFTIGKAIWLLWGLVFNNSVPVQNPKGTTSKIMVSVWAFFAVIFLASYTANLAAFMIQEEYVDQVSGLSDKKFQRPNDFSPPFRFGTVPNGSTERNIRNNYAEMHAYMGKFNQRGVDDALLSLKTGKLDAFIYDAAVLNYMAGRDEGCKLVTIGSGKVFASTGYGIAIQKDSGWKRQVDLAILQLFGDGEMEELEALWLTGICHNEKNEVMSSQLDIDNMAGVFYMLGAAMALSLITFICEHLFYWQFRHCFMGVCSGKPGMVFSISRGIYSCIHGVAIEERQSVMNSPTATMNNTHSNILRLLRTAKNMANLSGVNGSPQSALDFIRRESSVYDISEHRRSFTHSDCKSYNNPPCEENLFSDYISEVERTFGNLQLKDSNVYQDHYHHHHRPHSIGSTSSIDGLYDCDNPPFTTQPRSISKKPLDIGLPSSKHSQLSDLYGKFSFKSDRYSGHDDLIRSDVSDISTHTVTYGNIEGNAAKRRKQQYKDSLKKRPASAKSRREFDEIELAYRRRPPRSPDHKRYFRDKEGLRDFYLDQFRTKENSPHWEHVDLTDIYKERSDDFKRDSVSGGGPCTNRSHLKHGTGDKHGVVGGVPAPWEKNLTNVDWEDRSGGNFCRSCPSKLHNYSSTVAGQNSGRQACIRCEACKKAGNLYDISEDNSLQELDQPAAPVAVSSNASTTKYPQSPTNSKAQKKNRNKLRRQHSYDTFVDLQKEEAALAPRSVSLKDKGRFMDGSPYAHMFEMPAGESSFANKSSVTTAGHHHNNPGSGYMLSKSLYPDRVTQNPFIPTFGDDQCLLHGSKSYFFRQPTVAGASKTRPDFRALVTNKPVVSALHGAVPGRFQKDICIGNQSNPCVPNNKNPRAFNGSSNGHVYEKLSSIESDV

This test concerns the target T1, Lrfn2/SALM1 (mouse, endogenous) (mouse (endogenous in mouse brain)) (UniProt Q80TG9).
T1 sequence: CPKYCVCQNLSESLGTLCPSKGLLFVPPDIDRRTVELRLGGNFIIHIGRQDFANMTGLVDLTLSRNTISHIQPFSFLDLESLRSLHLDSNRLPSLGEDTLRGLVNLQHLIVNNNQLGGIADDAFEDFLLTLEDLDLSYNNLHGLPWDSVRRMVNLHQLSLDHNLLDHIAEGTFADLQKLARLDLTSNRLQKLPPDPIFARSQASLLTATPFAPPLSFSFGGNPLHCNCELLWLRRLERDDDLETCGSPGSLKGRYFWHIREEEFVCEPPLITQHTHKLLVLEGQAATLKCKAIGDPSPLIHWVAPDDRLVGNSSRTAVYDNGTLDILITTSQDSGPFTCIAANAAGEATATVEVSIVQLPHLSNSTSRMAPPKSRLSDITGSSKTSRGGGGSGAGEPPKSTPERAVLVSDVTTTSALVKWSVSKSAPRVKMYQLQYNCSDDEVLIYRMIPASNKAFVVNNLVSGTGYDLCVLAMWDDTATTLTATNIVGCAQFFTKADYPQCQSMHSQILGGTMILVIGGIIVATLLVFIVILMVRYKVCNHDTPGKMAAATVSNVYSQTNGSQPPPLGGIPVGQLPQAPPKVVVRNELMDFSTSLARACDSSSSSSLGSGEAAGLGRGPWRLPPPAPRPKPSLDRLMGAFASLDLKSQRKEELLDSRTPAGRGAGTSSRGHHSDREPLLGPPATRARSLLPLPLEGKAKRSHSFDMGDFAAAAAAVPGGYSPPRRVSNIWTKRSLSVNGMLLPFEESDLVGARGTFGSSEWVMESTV
As to the kind of experiment: co-IP; mouse brain (without cerebellum) synaptosomal fraction (250 ug) in RIPA buffer; anti-Lrfn2 antibody or normal rabbit IgG overnight at 4 C, protein A-agarose, five washes with RIPA buffer, immunoblot.

Results are given in words; binding and its absence hold for the method and conditions named. In cells and extracts the contact can be indirect. Some results given as binding are weak or reduced against the parent protein; the word gives no strength.

Regarding “GluN2B subunit of NMDAR (mouse, endogenous) (from UniProt Q01097 27-1482) (receptor)”, the binding result is “binds”.
In the case of “GluN2A subunit of NMDAR (mouse, endogenous) (from UniProt P35436 23-1464) (receptor)”, the binding entry was “binds”.
